These results are taken from publication PMC6941865.

The chains behind the UniProt entries cited, without tags or fusion partners. Where a name states a change or a piece, a line headed by the entry shows the natural chain unless it says otherwise.
UniProt Q233X5: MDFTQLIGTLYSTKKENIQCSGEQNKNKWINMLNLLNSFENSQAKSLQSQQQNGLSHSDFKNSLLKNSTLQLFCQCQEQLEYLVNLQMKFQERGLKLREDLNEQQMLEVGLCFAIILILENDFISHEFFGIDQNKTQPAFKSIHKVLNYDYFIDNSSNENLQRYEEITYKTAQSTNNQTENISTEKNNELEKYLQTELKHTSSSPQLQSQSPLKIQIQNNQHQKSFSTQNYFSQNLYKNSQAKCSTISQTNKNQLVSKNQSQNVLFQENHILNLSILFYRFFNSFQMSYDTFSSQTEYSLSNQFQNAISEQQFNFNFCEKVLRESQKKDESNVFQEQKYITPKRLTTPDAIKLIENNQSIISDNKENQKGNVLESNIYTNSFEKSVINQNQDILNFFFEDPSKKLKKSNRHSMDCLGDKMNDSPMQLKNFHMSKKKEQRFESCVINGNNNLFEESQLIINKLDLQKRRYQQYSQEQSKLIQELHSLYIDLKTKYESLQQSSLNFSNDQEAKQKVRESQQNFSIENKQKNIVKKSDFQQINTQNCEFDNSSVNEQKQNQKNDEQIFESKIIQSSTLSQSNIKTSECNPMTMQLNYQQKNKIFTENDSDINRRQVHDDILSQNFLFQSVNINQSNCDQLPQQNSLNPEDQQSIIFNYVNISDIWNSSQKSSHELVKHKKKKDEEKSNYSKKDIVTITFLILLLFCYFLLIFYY
UniProt Q24CC5: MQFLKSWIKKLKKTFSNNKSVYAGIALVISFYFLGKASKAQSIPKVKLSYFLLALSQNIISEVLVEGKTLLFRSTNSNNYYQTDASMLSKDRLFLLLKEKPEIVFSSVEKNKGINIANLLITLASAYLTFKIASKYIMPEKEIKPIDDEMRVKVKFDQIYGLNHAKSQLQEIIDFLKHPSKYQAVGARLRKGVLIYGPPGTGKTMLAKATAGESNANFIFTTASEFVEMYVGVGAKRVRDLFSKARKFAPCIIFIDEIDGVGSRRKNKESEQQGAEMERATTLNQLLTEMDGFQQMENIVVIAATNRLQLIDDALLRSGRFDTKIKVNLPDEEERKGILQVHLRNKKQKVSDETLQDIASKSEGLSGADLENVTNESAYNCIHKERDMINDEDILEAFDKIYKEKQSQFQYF
UniProt I7M913: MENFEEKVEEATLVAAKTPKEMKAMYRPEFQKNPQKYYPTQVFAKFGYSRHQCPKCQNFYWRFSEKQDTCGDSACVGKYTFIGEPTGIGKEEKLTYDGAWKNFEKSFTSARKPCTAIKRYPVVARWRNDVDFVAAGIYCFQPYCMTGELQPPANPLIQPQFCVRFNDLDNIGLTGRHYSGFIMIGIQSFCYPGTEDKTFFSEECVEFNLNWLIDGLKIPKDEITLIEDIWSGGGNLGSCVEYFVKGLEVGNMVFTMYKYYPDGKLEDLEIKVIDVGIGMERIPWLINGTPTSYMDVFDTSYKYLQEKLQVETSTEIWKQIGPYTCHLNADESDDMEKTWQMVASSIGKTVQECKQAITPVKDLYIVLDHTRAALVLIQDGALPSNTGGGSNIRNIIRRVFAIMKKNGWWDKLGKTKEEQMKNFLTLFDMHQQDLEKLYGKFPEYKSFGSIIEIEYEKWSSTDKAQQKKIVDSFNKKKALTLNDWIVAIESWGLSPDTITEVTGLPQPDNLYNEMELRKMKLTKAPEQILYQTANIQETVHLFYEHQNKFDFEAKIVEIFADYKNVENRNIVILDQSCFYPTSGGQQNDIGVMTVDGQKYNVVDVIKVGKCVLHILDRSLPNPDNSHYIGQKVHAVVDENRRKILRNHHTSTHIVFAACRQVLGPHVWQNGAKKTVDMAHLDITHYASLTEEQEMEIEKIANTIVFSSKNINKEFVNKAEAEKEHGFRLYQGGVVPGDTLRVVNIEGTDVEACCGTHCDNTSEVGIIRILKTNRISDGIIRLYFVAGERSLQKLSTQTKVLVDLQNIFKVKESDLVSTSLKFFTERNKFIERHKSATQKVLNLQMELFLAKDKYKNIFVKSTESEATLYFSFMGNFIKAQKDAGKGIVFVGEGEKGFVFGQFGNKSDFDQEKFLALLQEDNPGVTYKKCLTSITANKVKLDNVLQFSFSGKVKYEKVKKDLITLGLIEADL
UniProt Q22GC6: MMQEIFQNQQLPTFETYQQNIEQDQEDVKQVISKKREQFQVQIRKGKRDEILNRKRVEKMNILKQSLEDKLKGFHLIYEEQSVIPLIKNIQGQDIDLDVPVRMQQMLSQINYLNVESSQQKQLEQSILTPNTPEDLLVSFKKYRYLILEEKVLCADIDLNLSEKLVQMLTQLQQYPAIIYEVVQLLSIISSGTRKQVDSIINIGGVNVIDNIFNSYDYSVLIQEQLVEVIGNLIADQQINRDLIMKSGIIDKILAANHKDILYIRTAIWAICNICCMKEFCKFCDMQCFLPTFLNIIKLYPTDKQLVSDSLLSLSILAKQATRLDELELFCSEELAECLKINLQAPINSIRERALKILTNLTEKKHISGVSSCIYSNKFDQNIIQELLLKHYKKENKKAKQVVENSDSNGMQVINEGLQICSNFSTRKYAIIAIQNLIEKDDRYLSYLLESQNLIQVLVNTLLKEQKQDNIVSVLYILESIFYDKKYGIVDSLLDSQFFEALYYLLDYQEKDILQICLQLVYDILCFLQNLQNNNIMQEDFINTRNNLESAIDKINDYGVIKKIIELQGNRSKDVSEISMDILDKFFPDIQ
UniProt I7MDW5: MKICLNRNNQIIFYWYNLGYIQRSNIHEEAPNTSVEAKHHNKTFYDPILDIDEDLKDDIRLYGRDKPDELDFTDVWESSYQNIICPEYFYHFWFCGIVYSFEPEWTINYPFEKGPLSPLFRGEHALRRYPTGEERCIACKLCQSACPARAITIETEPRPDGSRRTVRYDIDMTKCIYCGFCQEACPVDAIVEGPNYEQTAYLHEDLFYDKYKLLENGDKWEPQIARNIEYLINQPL
UniProt Q22WD2: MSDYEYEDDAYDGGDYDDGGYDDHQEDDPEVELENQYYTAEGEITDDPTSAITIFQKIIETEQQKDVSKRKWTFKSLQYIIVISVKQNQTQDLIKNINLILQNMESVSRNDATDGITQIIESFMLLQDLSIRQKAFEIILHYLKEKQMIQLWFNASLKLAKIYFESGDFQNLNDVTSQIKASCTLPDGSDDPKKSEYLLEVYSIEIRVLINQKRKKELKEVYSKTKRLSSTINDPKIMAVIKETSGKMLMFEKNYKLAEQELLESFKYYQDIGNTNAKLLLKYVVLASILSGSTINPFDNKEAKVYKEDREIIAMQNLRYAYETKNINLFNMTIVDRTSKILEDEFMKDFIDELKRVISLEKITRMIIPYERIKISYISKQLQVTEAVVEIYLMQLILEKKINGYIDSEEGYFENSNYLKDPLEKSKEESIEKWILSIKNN
UniProt I7LTL6: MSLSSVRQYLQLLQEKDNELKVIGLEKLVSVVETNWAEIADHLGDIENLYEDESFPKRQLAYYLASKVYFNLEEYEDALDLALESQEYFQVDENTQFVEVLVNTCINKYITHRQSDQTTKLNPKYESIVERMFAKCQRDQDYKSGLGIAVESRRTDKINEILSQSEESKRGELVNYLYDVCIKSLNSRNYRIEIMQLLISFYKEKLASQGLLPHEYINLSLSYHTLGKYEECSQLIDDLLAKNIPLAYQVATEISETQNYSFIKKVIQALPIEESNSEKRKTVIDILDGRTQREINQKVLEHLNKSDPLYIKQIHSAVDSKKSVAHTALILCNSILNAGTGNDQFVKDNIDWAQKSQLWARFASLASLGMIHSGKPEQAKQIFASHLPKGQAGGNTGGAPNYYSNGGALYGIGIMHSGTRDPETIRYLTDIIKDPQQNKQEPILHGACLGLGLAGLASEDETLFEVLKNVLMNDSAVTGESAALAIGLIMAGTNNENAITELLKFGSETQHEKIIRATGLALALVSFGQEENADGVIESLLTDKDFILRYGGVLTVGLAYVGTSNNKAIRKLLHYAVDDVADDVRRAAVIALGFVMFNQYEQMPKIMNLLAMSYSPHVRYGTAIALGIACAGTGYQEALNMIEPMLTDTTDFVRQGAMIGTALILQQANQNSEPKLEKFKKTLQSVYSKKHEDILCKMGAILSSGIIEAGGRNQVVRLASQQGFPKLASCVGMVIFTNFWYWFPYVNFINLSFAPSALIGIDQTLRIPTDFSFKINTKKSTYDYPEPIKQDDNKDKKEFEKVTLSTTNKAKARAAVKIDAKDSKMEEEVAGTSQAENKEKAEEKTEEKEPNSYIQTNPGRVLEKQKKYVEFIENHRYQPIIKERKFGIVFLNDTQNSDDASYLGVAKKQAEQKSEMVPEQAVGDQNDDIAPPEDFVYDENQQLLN
UniProt I7MHK8: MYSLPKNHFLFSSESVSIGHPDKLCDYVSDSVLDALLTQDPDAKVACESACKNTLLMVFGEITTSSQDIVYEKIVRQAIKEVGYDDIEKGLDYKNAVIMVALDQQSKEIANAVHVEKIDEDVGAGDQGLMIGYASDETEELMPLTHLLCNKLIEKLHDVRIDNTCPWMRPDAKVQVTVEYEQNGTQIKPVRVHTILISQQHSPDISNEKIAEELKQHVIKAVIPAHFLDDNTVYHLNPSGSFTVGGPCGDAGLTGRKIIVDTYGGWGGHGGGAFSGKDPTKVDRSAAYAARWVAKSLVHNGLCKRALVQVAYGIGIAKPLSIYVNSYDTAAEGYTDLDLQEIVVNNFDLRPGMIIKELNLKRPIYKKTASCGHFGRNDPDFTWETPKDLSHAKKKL
UniProt I7M8A6: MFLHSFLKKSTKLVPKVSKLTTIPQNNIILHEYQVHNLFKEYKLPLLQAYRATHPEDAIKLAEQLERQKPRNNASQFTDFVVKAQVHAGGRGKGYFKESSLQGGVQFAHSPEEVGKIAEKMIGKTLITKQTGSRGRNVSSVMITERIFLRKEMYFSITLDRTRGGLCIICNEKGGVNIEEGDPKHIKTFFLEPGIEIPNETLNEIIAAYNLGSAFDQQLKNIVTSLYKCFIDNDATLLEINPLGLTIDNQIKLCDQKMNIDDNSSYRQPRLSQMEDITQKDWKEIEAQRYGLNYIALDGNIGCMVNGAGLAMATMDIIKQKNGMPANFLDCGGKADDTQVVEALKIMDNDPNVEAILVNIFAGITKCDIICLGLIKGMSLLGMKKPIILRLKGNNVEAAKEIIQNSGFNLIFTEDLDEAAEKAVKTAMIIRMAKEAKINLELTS
UniProt Q240S0: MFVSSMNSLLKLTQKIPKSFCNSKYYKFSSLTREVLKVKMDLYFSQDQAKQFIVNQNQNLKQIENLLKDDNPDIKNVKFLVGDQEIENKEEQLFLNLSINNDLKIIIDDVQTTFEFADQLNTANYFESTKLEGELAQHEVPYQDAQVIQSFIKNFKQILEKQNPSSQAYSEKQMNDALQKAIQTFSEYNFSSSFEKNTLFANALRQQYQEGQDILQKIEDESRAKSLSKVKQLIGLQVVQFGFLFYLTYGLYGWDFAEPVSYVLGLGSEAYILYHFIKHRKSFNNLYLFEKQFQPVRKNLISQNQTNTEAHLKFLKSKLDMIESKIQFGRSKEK
UniProt Q248H6: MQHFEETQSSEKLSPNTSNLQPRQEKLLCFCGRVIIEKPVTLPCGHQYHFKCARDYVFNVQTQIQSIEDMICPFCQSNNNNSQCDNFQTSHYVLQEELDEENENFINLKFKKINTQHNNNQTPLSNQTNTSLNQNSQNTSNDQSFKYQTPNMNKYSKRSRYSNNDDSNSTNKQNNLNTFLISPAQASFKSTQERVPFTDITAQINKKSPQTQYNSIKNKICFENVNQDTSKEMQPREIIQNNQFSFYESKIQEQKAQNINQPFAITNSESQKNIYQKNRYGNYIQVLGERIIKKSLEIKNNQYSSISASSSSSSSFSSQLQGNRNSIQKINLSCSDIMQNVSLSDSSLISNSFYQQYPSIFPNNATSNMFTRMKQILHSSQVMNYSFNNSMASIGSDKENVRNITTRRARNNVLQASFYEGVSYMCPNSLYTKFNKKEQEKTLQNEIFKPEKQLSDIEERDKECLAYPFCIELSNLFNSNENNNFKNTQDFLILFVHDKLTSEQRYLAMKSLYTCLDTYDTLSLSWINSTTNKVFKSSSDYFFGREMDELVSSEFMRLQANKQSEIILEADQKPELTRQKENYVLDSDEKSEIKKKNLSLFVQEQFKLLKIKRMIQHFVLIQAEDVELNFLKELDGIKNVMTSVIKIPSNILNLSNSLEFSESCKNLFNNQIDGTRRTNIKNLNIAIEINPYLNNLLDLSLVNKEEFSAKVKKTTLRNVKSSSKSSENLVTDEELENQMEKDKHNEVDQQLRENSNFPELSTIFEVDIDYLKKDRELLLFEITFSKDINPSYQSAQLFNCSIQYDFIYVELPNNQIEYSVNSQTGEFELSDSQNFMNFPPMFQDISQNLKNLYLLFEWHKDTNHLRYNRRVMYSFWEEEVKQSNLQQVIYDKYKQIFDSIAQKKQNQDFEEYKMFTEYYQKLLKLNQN

Results are given in words; binding and its absence hold for the method and conditions named. In cells and extracts the contact can be indirect. These calls come from enrichment with a bait or labelling near it, and not all partners need be listed.

The assay addresses mCherry-tagged Semi1 (selected haploid micronucleus 1) (T. thermophila) (UniProt Q233X5). Description: affinity purification with mass spectrometry; interaction partners of mCherry-Semi1 co-immunoprecipitated from T. thermophila cells and identified by MS; cells expressing the free mCherry tag as control; SAINTexpress analysis (p < 0.05).
Regarding “ATP-dependent metalloprotease FtsH TTHERM_01079260 (from UniProt Q24CC5)”, the binding entry is on record as “binds”.

Take “Ars2 (ARS2 alanine-tRNA ligase/alanyl-tRNA synthetase protein) (from UniProt I7M913)”: the binding entry was “binds”.

“Ima5 (IMA5 import in subunit alpha putative) (from UniProt Q22GC6)”: the binding entry is “binds”.

Regarding “NADH-ubiquinone oxidoreductase 1 chain putative TTHERM_00294640 (from UniProt I7MDW5)”, the binding entry is “binds”.

With “PCI-domain protein TTHERM_00158020 (from UniProt Q22WD2)”, the binding entry is listed as “binds”.

“Rpn2 (RPN1 26S proteasome regulatory complex subunit RPN2) (from UniProt I7LTL6)”: the binding result is recorded as “binds”.

Regarding “S-adenosylmethionine synthase protein TTHERM_00444470 (from UniProt I7MHK8)”, the binding entry is “binds”.

As to “Succinyl-CoA ligase [GDP-forming] subunit beta TTHERM_00437600 (from UniProt I7M8A6)”, the binding entry is listed as “binds”.

For “Transmembrane protein putative TTHERM_00624630 (from UniProt Q240S0)”, the binding entry is “binds”.

With “Zfr3 (Zinc Finger-Related 3) (from UniProt Q248H6)”, the binding entry is listed as “binds”.
